No constants are given. Whether binding was seen depends on the method and setting. Some results given as binding are weak or reduced against the parent protein; the word gives no strength.
Target: T1, FLU-GG-…
T1 sequence (peptide, fluorescein (FLU / FAM) on the N-terminus): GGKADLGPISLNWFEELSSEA
Assay: fluorescence polarisation; direct: PALB2C serially diluted from 4.4 μM, fluorescent peptide 10 nM; 20 mM HEPES, 100 mM NaCl, 1 mM DTT, 1 mM EDTA, 0.01% IGEPAL CA-630; 20 min at RT in the dark, read at 25 °C; both purified

B1: PALB2 C-terminal WD40 domain (domain or fragment, UniProt Q86YC2 835-1186)
chain: SVEQTETAELPASDSINPGNLQLVSELKNPSGSCSVDVSAMFWERAGCKEPCIITACEDVVSLWKALDAWQWEKLYTWHFAEVPVLQIVPVPDVYNLVCVALGNLEIREIRALFCSSDDESEKQVLLKSGNIKAVLGLTKRRLVSSSGTLSDQQVEVMTFAEDGGGKENQFLMPPEETILTFAEVQGMQEALLGTTIMNNIVIWNLKTGQLLKKMHIDDSYQASVCHKAYSEMGLLFIVLSHPCAKESESLRSPVFQLIVINPKTTLSVGVMLYCLPPGQAGRFLEGDVKDHCAAAILTSGTIAIWDLLLGQCTALLPPVSDQHWSFVKWSGTDSHLLAGQKDGNIFVYHYS
In the case of B1, the binding is reported as “binds”.

— publication PMC12090178, “Exploring the Potential of Homologous Recombination Protein PALB2 in Synthetic Lethal Combinations” (ACS Chemical Biology, 2025)
